In PubChem BioAssay AID2685 (National Center for Advancing Translational Sciences (NCATS), 2010):
The other results are listed elsewhere or left out. Further columns of the screen follow, without active or inactive calls. The list favours compounds with an active or inconclusive main result. The note in brackets gives the kind of curve behind each potency; many fits are weak.

Assay: qHTS Assay for Lipid Storage Modulators in Drosophila S3 Cells;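 as to cell number change: cells counted by Cell Tracker Red CMTPX staining in the red channel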
Conditions: BODIPY lipid droplet fluorescence, 18-24 h; for cell number change: measured here: cell count max response, cells fed with added oleic acid
Outline: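 Drosophila S3 cells got compounds at several concentrations plus oleic acid (400 uM solution). Laser-scanning cytometry with 488 nm excitation read lipid droplets at 500-530 nm and cells at 575-640 nm. Percent activity was relative to 20 uM Triacsin C.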

[1] = measured here: lipid fluorescence (Fed channel) AC50, cells fed with added oleic acid
[2] = measured here: cell number channel AC50, cells fed with added oleic acid

| SMILES | cell number change [%] | AC50 [1] | AC50 [2] |
| --- | --- | --- | --- |
| O=S(=O)(c1ccc(-c2nnc(SCc3nnc(-c4ccccc4)o3)o2)cc1)N1CCCC1 | 2.6 | 18.4 µM [falling, single point] | – |
| CN(Cc1ccccc1)C(=O)Cn1c(=O)oc2cc(S(=O)(=O)N3CCCC3)ccc21 | 44.5 | 2.31 µM [falling, partial curve] | – |
| Cc1ccc2nc(SCC(=O)OCc3ccccc3)nc(=O)n2c1 | – | 6.51 µM [falling, single point] | – |
| Cc1cc(C(=O)CN2C(=O)NC3(CCCCC3C)C2=O)c(C)n1Cc1cccs1 (stereo not given) | 32.6 | 1.3 µM [rising, full curve, poor fit] | 9.2 µM [rising, partial curve] |
| CC1CN(c2nnc(NC(=O)c3ccccc3)s2)CC(C)O1 (stereo not given) | 33.1 | – | 25.9 µM [rising, single point] |
| COc1ccc(OC)c(CC(NC(C)=O)C(=O)NC2CCN(c3nc(OC)nc(OC)n3)CC2)c1 (stereo not given) | 4.92 | 5.8 µM [falling, single point] | – |
| O=C(COC(=O)c1ccc[nH]c1=O)NC1CCCC1 | -1.03 | 0.82 µM [falling, full curve] | – |
| O=C(Nc1nnc(CCOCCOCCc2nnc(NC(=O)c3ccco3)s2)s1)c1ccco1 | 53.1 | 0.517 µM [rising, full curve] | 10.3 µM [rising, partial curve, poor fit] |
| CCCn1c(=O)c2ccccc2n2c(SCC(=O)Nc3cc(C)on3)nnc12 | 16.2 | 0.146 µM [rising, full curve, poor fit] | – |
| CCN(c1ccccc1)S(=O)(=O)c1cc(CN2C(=O)c3cccnc3C2=O)ccc1OC | 3.82 | – | – |
| CCOC(=O)COc1cc(-n2c(=S)[nH]c3cc(OC)c(OC)cc3c2=O)c(Cl)cc1Cl | -63.4 | 23.1 µM [falling, single point] | 29.1 µM [falling, single point] |
| Cc1ccc(N2CC(=O)Nc3c(sc4nc(C)cc(C)c34)C2=O)cc1 | 20.5 | 3.26 µM [rising, partial curve] | – |
| O=C(NC1CCCC1)C1CCC(CNS(=O)(=O)c2ccccc2)CC1 (stereo not given) | 20 | 0.651 µM [rising, single point] | – |
| O=C(N/N=C/c1ccc(N2CCCCC2)o1)c1ccccc1[N+](=O)[O-] | -51.3 | 32.6 µM [falling, partial curve] | 18.4 µM [falling, single point] |
| COc1ccc2c(-c3cc4ccc(OCc5ccc(F)cc5)cc4oc3=O)cc(=O)oc2c1 | -66.7 | – | 1.84 µM [falling, partial curve] |
| CCCCn1c(N)c(N(CCC(C)C)C(=O)COC(=O)c2ccc3ccccc3c2)c(=O)[nH]c1=O | – | – | 4.11 µM [rising, single point] |
| c1coc(-c2ccnc3ncnn23)c1 | -41.5 | 18.4 µM [falling, single point] | 29.1 µM [falling, single point] |
| COc1ccc(NC(=O)C2CCCN2C(=O)NC2CCCCC2)cc1 (stereo not given) | 9.83 | 29.1 µM [rising, single point] | 0.731 µM [rising, single point] |
| COc1ccc(OC)c(C(c2nnnn2Cc2ccco2)N2CCN(C)CC2)c1 (stereo not given) | 17.2 | 0.0058 µM [rising, full curve, poor fit] | 0.00411 µM [rising, full curve, poor fit] |

Structures listed so far containing an aryl thioether with sulfur outside any ring, in the order listed:

| SMILES | cell number change [%] | AC50 [1] | AC50 [2] |
| --- | --- | --- | --- |
| O=S(=O)(c1ccc(-c2nnc(SCc3nnc(-c4ccccc4)o3)o2)cc1)N1CCCC1 | 2.6 | 18.4 µM [falling, single point] | – |
| Cc1ccc2nc(SCC(=O)OCc3ccccc3)nc(=O)n2c1 | – | 6.51 µM [falling, single point] | – |
| CCCn1c(=O)c2ccccc2n2c(SCC(=O)Nc3cc(C)on3)nnc12 | 16.2 | 0.146 µM [rising, full curve, poor fit] | – |

More compounds:

| SMILES | cell number change [%] | AC50 [1] | AC50 [2] |
| --- | --- | --- | --- |
| CCCCn1c(N)c(N(CCOC)C(=O)CCc2ccc(OC)cc2)c(=O)[nH]c1=O | -0.89 | – | 6.51 µM [rising, single point] |
| CC(=O)OC(C)(C)C1Cc2cc3ccc(=O)oc3cc2O1 (stereo not given) | 2.84 | – | 1.64 µM [rising, partial curve] |
| O=C1Nc2ccccc2/C1=C\c1cccn1-c1ccc(OC(F)(F)F)cc1 | -45.9 | 16.4 µM [falling, partial curve] | 0.0146 µM [falling, full curve, poor fit] |
| COc1ccc(C(=O)N2CCN(C(C)=O)CC2)cc1S(=O)(=O)N1CCOCC1 | -26.2 | – | 0.517 µM [falling, full curve, poor fit] |
| COc1ccccc1C(=O)NCC(=O)NC(C)CCc1ccccc1 (stereo not given) | 15.7 | – | – |
| O=S1(=O)CCC(NC(=S)N2CCCCC2)C1 (stereo not given) | -6.03 | 32.6 µM [falling, single point] | – |
| O=C(O)c1cccc(NC(=O)c2ccc3c(c2)C(=O)N(CC2CCCO2)C3=O)c1 (stereo not given) | -30.2 | 1.03 µM [falling, full curve, poor fit] | 0.092 µM [falling, full curve] |
| Cc1ccnc(NC(=O)CCC2CCCCC2)c1 | – | 6.51 µM [falling, single point] | – |
| O=S(=O)(c1ccccc1)N1CCN(C(=S)Nc2ccc(F)cc2)CC1 | 37.9 | 6.51 µM [falling, partial curve, poor fit] | 16.4 µM [rising, single point] |
| C=CCNCCOCCOc1ccc(C)cc1[N+](=O)[O-] | 10.9 | – | – |
| O=C(O)c1nc(NCCc2ccccc2)ncc1Cl | – | 1.03 µM [rising, full curve, poor fit] | 0.103 µM [rising, full curve, poor fit] |
| COc1ccc(CCNC(=O)c2ccc3c(=O)n4c(nc3c2)CCC4)cc1OC | -17 | 7.31 µM [falling, single point] | – |
| CC(Oc1ccccc1)C(=O)Nc1nnc(S(=O)(=O)N(C)c2ccccc2)s1 (stereo not given) | 4.29 | 32.6 µM [falling, single point] | – |
| CCOC(=O)NC(NCCc1ccccc1)(C(F)(F)F)C(F)(F)F | -22.7 | – | – |
| S=C(c1ccc(-c2cccc(Cl)c2)o1)N1CCOCC1 | -8.62 | – | – |
| CN(C)c1c(-c2ccccc2)cc(-c2ccccc2)[nH]c1=O | 6.21 | 7.31 µM [rising, partial curve] | – |
| CCC(C)[C@H](NC(=O)NCc1cccs1)C(=O)O (stereo not given in full) | 6.12 | 0.731 µM [falling, full curve, poor fit] | – |
| O=C(Nc1nc(-c2ccccn2)cs1)c1cc2ccccc2o1 | 10.1 | – | – |
| CCCCCC(C)NC(=S)NC(=O)c1cc(S(=O)(=O)N2CCOCC2)ccc1C (stereo not given) | -3.13 | 0.82 µM [falling, full curve, poor fit] | – |

| SMILES | cell number change [%] | AC50 [1] | AC50 [2] |
| --- | --- | --- | --- |
| O=C(O)c1ccccc1C(=O)Nc1ccc(-c2csc(-c3ccccc3)n2)cc1 | – | 2.06 µM [rising, partial curve] | – |
| Nc1c(N(CCC2=CCCCC2)C(=O)Cc2ccc(F)cc2)c(=O)[nH]c(=O)n1Cc1ccccc1 | 129 | – | 18.4 µM [rising, single point] |
| COc1ccc(Cl)cc1NC(=O)CSc1nnc(COc2ccccc2)n1N | -42.9 | 2.59 µM [rising, partial curve] | 2.31 µM [rising, partial curve] |
| Cc1cc(NC(=O)c2cc(-c3cccc(OCC(C)C)c3)nc3ccccc23)no1 | 124 | – | 20.6 µM [rising, partial curve] |
| Cn1nnnc1NCc1c(F)cccc1Cl | -0.397 | 16.4 µM [falling, single point] | – |
| CC(=O)c1ccc(Oc2ncnc(N)c2[N+](=O)[O-])cc1 | -19.1 | 3.26 µM [falling, full curve] | – |
| CCN(CC(=O)NC1CCS(=O)(=O)C1)S(=O)(=O)c1ccc(C)cc1C (stereo not given) | -4.91 | 29.1 µM [rising, single point] | – |
| CCN(CC)S(=O)(=O)c1ccc(N/N=C(\C)c2ccc(OC)cc2O)nc1 | 9.32 | 6.51 µM [rising, single point] | – |
| Cc1cccc(Cc2cnc(N3C(=N)SC(c4ccccc4)C3=O)s2)c1 (stereo not given) | – | 2.91 µM [falling, full curve] | – |
| O=C(/C=C/c1cccs1)NC1CC1 | 0.122 | 23.1 µM [falling, partial curve, poor fit] | 0.00461 µM [falling, full curve, poor fit] |
| O=C(Nc1nc(-c2ccccn2)cs1)C1CC(=O)N(c2ccc3c(c2)OCCO3)C1 (stereo not given) | 66.7 | 0.206 µM [rising, full curve, poor fit] | 29.1 µM [rising, single point] |
| Cc1cc(Cl)ccc1OCC(=O)NCC(c1cccs1)N1CCOCC1 (stereo not given) | 40.4 | 4.61 µM [rising, full curve, poor fit] | 7.31 µM [rising, partial curve, poor fit] |
| O=S(=O)(NCCc1ccc2c(c1)OCCO2)c1cccs1 | -46.8 | – | 16.4 µM [falling, partial curve, poor fit] |
| O=C(O)c1cccc(NS(=O)(=O)/C=C/c2ccccc2)c1 | 17.1 | – | – |
| COc1ccc(N2C(=O)CCC(C(C)=O)=C2C)cc1 | 4.68 | – | – |
| COC(=O)c1ccc[n+](CC(=O)c2ccc(Br)cc2)c1 | -39 | 32.6 µM [falling, single point] | 32.6 µM [falling, single point] |
| COc1ccc(CCC(=O)O)cc1OC | -21.2 | – | – |
| COc1ccc(O)c(/C=N/NC(=S)Nc2cccc(S(=O)(=O)N(C)C)c2)c1 | 50 | 29.1 µM [falling, single point] | 23.1 µM [rising, single point] |
| COc1cc(C(=O)Nc2cc(Cl)ccc2-n2cncn2)ccc1OC(F)F | – | – | 0.461 µM [rising, single point] |
